# Measurements reported in PubChem BioAssay AID743121 (NCATS, 2013).
# Screen: 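Partners whose loss is lethal together with topoisomerase I blockade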 (primary screen)
# System: MDA-MB-231 cells, a human breast cancer line
# Reagent: single siRNA against human genes, 20 nM siRNA (0.8 pmol per well)
# Time to read-out: 120 h (drug added 48 h after transfection, read 72 h later)
# Challenge: camptothecin 20 nM (about EC30) for 72 h; vehicle 0.1% DMSO in parallel plates
# Measured: 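CellTiter-Glo ATP signal, scaled to control siRNA as percent viability; sensitisation given as log2 of untreated divided by camptothecin-treated viability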
# Direction: log2 vehicle/camptothecin viability: higher = stronger sensitisation to camptothecin
# Hit rule: 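Each gene scored by redundant siRNA activity (RSA) over its individual siRNA ratios; a gene is called active at p < 0.001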
# The deposit covers about 26,000 reagents; this is a random part of them. Of all reagents, 167 (0.63%) were called active. 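Calls are per gene from RSA p-values that are not deposited; an individual active-marked siRNA can sensitise only weakly.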 Reagents against one gene are numbered here. Further read-outs or replicates are left out here. Reagent sequences are not shown.
gene symbol,reagent no.,log2 vehicle/camptothecin viability,Outcome
PIK3C3,1,-0.285,inactive
PIK3C3,2,-0.353,inactive
PIK3C3,3,-0.352,inactive
PIK3C3,4,-0.184,inactive
XPNPEP1,1,-0.147,inactive
XPNPEP1,2,-0.652,inactive
XPNPEP1,3,-0.112,inactive
CCR9,1,-0.0138,inactive
CCR9,2,-0.251,inactive
CCR9,3,0.561,inactive
CCR9,4,-0.099,inactive
NLRP3,1,-0.166,inactive
NLRP3,2,-0.139,inactive
NLRP3,3,1.53,inactive
NLRP3,4,-0.476,inactive
RAMP3,1,-0.382,inactive
RAMP3,2,-0.236,inactive
RAMP3,3,-0.104,inactive
RAMP3,4,-0.0612,inactive
PMVK,1,-0.165,inactive
PMVK,2,-0.526,inactive
PMVK,3,-0.121,inactive
PMVK,4,0.249,inactive
DGKK,1,-0.394,inactive
DGKK,2,-0.193,inactive
DGKK,3,-0.114,inactive
DGKK,4,-0.155,inactive
DGKK,5,0.0475,inactive
DGKK,6,-0.155,inactive
DGKK,7,-0.0665,inactive
